# In PubChem BioAssay:
# “And” between values parts separate entries of the source, which are not always exact repeats. Equal values may be shown once. The inconclusive results got no clear call from the source; some entries with a clear call stand among them for comparison. For part of these data: Where the call is inconclusive, the potency comes from a doubtful curve fit. The source made the active and inactive calls. Unless noted, the limit is not given here; nearly all actives have AC50 up to about 26 µM.
# Experiments:
# [1] = growth inhibition of DIPG glioma cells, dose response, cell-based, SU-DIPG-XVII, MIPE5.0, CellTiter-Glo, qHTS (AID 1347060); conditions: SU-DIPG-XVII viability, CellTiter-Glo ATP luminescence;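 as to AC50: cells exposed to compound for 48 hours before viability readout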
# [2] = growth inhibition of DIPG glioma cells, dose response, cell-based, SU-DIPG-XIII, MIPE5.0, CellTiter-Glo, qHTS (AID 1347064; cut-off not given, nearly all actives have AC50 up to about 23 µM;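 as to AC50: cells exposed to compound for 48 hours before the viability read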); conditions: SU-DIPG-XIII viability, CellTiter-Glo ATP luminescence
# [3] = viability loss in pontine glioma line – cell-based, SU-DIPG-XXV, MIPE5.0, CellTiter-Glo, qHTS, dose response (AID 1347065); conditions: CellTiter-Glo ATP luminescence;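 also: cells exposed to compound for 48 hours before ATP readout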
# [4] = JHH-DIPG-1 glioma cell viability, MIPE5.0 library, CellTiter-Glo luminescence, qHTS (AID 1347067); conditions: JHH-DIPG-1 glioma viability, CellTiter-Glo ATP luminescence;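 also: cells exposed to compound for 48 hours before readout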
# [5] = SU-DIPG-XXV glioma cell viability, MIPE5.0 library, qHTS (AID 1347068; cut-off not given, nearly all actives have IC50 up to about 30 µM;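 as to IC50: cells exposed to compound for 48 hours before viability readout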)
# [6] = inhibitors of polyQ aggregate elongation, biochemical, solid-phase synthetic aggregates, QA3 (AID 1585; call rule not given here); conditions: biotin-polyQ incorporation, at 100 µM, stronger effect = higher value
# [7] = polyglutamine aggregation reduction, turbidity readout, qthio, single concentration 25 µM screen (AID 1588; call rule not given here); conditions: at 25 µM, stronger effect = lower value
# [8] = enhancers of SMN2 over SMN1 splicing, cell-based, SMN2/SMN1 luciferase reporters (AID 1598; call rule not given here); conditions: SMN2 vs SMN1 luciferase splicing reporter cells; at 10 µM; stronger effect = higher value
compound,measurement,setting,value
CNc1nc(Nc2cnn([C@H]3CCN(C4COC4)C[C@@H]3F)c2Cl)ncc1C(F)(F)F,AC50,[1],inconclusive: 18.6 µM [cytotoxic]
same,AC50,[2],inconclusive: 23.5 µM [cytotoxic]
same,AC50,[3],active: 20.9 µM
same,AC50,[4],inconclusive: 11.8 µM [cytotoxic]
same,IC50,[5],inconclusive: 13.2 µM [cytotoxic]
C[C@@H]1COCCN1c1cc(C2(S(C)(=N)=O)CC2)nc(-c2ccnc3[nH]ccc23)n1 (some centres not stated),AC50,[1],inconclusive: 16.6 µM [cytotoxic]
same,AC50,[2],inconclusive: 9.34 µM [cytotoxic]
same,AC50,[3],inconclusive: 3.72 µM [cytotoxic]
same,AC50,[4],inconclusive: 18.6 µM [cytotoxic]
same,IC50,[5],inconclusive: 4.17 µM [cytotoxic]
O=C(NCc1cccc(O)c1)Nc1nc(-c2ccncc2)cs1,AC50,[1],inconclusive: 4.68 µM [cytotoxic]
same,AC50,[2],inconclusive: 37.2 µM [cytotoxic]
same,AC50,[3],inconclusive: 2.63 µM [cytotoxic]
same,AC50,[4],inconclusive: 1.48 µM [cytotoxic]
same,IC50,[5],inconclusive: 14.8 µM [cytotoxic]
Nc1ccn([C@@H]2C(F)=C(CO)[C@@H](O)[C@H]2O)c(=O)n1,AC50,[1],inconclusive: 1.32 µM [cytotoxic]
same,outcome,[2],inactive
same,AC50,[3],inconclusive: 5.9 µM [cytotoxic]
same,outcome,[4],inactive
same,outcome,[5],inactive
Cc1c(NC(=O)c2cc(C(N)=O)nc3cc(F)ccc23)c(C(F)(F)F)nn1Cc1ccc(C#N)cc1,AC50,[1],inconclusive: 18.6 µM [cytotoxic]
same,AC50,[2],inconclusive: 18.6 µM [cytotoxic]
same,AC50,[3],inconclusive: 16.6 µM [cytotoxic]
same,AC50,[4],inconclusive: 1.66 µM [cytotoxic]
same,IC50,[5],inconclusive: 6.61 µM [cytotoxic]
CC(C)S(=O)(=O)c1ccc2nccc(Nc3ccc4scnc4c3)c2c1,AC50,[1],active: 16.6 µM
same,AC50,[2],inconclusive: 16.6 µM [cytotoxic]
same,AC50,[3],inconclusive: 18.6 µM [cytotoxic]
same,AC50,[4],inconclusive: 20.9 µM [cytotoxic]
same,IC50,[5],inconclusive: 16.6 µM [cytotoxic]
O=c1c(-c2ccc(O)cc2)coc2cc(O)cc(O)c12,AC50,[1],inconclusive: 38.2 µM [cytotoxic]
same,outcome,[2],inactive
same,AC50,[3],inconclusive: 17.1 µM [cytotoxic]
same,AC50,[4],inconclusive: 30.3 µM [cytotoxic]
same,IC50,[5],inconclusive: 67.9 µM
O=C(NO)c1cnc(NC2(c3cccc(F)c3)CCCCC2)nc1,AC50,[1],inconclusive: 23.5 µM [cytotoxic]
same,AC50,[2],inconclusive: 37.2 µM [cytotoxic]
same,AC50,[3],inconclusive: 0.00118 µM
same,AC50,[4],inconclusive: 23.5 µM [cytotoxic]
same,IC50,[5],inconclusive: 29.5 µM [cytotoxic]
C[C@@H]1CCNC(=O)c2cc3ccc(C(=O)Nc4nc5ccccc5n4CCCN(C)C)cc3n21,AC50,[1],inconclusive: 29.5 µM [cytotoxic]
same,outcome,[2],inactive
same,AC50,[3],inconclusive: 29.5 µM [cytotoxic]
same,AC50,[4],inconclusive: 26.3 µM [cytotoxic]
same,IC50,[5],inconclusive: 23.5 µM [cytotoxic]
CC(C)(C)S(=O)(=O)c1ccc2nccc(Nc3n[nH]c4ccc(F)cc34)c2c1,AC50,[1],inconclusive: 16.6 µM [cytotoxic]
same,AC50,[2],inconclusive: 37.2 µM [cytotoxic]
same,AC50,[3],inconclusive: 16.6 µM [cytotoxic]
same,AC50,[4],inconclusive: 20.9 µM [cytotoxic]
same,outcome,[5],inactive
CC(C)(Sc1cc(C(C)(C)C)c(O)c(C(C)(C)C)c1)Sc1cc(C(C)(C)C)c(O)c(C(C)(C)C)c1,inhibition,[6],inconclusive: 24.3%
same,aggregation (% of control),[7],inconclusive: 93.6%
same,SMN2/SMN1 luciferase ratio,[8],inconclusive: 0.95
same,AC50,[1],inconclusive: 16.6 µM [cytotoxic]
same,AC50,[2],inconclusive: 8.33 µM [cytotoxic]
same,AC50,[3],inconclusive: 10.5 µM [cytotoxic]
same,AC50,[4],inconclusive: 16.6 µM [cytotoxic]
O=c1[nH]c(=O)n([C@H]2C[C@H](O)[C@@H](CO)O2)cc1I,outcome,[1],inactive
same,AC50,[2],inconclusive: 11.8 µM [cytotoxic]
same,AC50,[3],inconclusive: 0.00833 µM [cytotoxic]
same,AC50,[4],inconclusive: 29.5 µM [cytotoxic]
same,outcome,[5],inactive
Nc1nc(-c2nn(Cc3ccccc3F)c3ncccc23)ncc1C1CC1,AC50,[1],inconclusive: 3.32 µM [cytotoxic]
same,AC50,[2],active: 11.8 µM
same,AC50,[3],inconclusive: 5.9 µM [cytotoxic]
same,AC50,[4],inconclusive: 2.63 µM [cytotoxic]
same,outcome,[5],inactive
C=CC(=O)N1C[C@H](Nc2ncnc3[nH]ccc23)CC[C@@H]1C,AC50,[1],inconclusive: 23.5 µM [cytotoxic]
same,AC50,[2],inconclusive: 11.8 µM [cytotoxic]
same,AC50,[3],inconclusive: 20.9 µM [cytotoxic]
same,AC50,[4],inconclusive: 18.6 µM [cytotoxic]
same,IC50,[5],inconclusive: 10.5 µM [cytotoxic]
O=c1[nH]nc2c3c(cccc13)NC(CN1Cc3ccccc3C1)=N2,AC50,[1],inconclusive: 1.66 µM [cytotoxic]
same,AC50,[2],inconclusive: 16.6 µM [cytotoxic]
same,AC50,[3],inconclusive: 0.00296 µM [cytotoxic]
same,AC50,[4],inconclusive: 11.8 µM [cytotoxic]
same,outcome,[5],inactive
C[C@]1(C(=O)N(CCCC(=O)O)Cc2cccc(Cl)c2)CCN1C(=O)c1csc2ccccc12,outcome,[1],inactive
same,AC50,[2],inconclusive: 0.0332 µM [cytotoxic]
same,outcome,[3],inactive
same,outcome,[4],inactive
same,outcome,[5],inactive
COc1ccc(S(=O)(=O)N[C@@H](CNc2nc(C)nc(N3CCC(c4ccc5c(n4)NCCC5)CC3)c2C)C(=O)O)cc1,outcome,[1],inactive
same,AC50,[2],inconclusive: 0.0468 µM
same,outcome,[3],inactive
same,outcome,[4],inactive
same,outcome,[5],inactive
CC(/C=C/[C@@H]1C[C@]1(C)c1ccc2c(c1)C(C)(C)CCC2(C)C)=C\C(=O)O,AC50,[1],inconclusive: 37.2 µM [cytotoxic]
same,AC50,[2],inconclusive: 37.2 µM [cytotoxic]
same,AC50,[3],inconclusive: 33.2 µM [cytotoxic]
same,AC50,[4],inconclusive: 26.3 µM [cytotoxic]
same,IC50,[5],inconclusive: 18.6 µM [cytotoxic]
COc1cc(OCc2cccc(-c3ccccc3)c2C)cc(OC)c1CN1CCCC[C@H]1C(=O)O,AC50,[1],inconclusive: 23.5 µM [cytotoxic]
same,outcome,[2],inactive
same,AC50,[3],active: 20.9 µM
same,AC50,[4],inconclusive: 26.3 µM [cytotoxic]
same,IC50,[5],inconclusive: 33.2 µM [cytotoxic]
C#Cc1cccc(Nc2ncnc3cc4c(cc23)OCCOCCOCCO4)c1,AC50,[1],inconclusive: 11.8 µM [cytotoxic]
same,outcome,[2],inactive
same,AC50,[3],inconclusive: 18.6 µM [cytotoxic]
same,AC50,[4],inconclusive: 8.33 µM [cytotoxic]
same,IC50,[5],inconclusive: 16.6 µM [cytotoxic]
O=C(O)CC1CCC(c2ccc(-c3ccc(Nc4ccc(C(F)(F)F)nc4)cn3)cc2)CC1 (configuration not stated),AC50,[1],inconclusive: 20.9 µM [cytotoxic]
same,AC50,[2],inconclusive: 10.5 µM [cytotoxic]
same,AC50,[3],inconclusive: 16.6 µM [cytotoxic]
same,AC50,[4],inconclusive: 3.72 µM [cytotoxic]
same,outcome,[5],inactive
O=C(O)c1ccc(O)c2ncccc12,outcome,[1],inactive
same,AC50,[2],active: 20.9 µM
same,outcome,[3],inactive
same,AC50,[4],inconclusive: 37.2 µM [cytotoxic]
same,outcome,[5],inactive
CN[C@@H](C)C(=O)N[C@H](C(=O)N1CCC[C@H]1C(=O)Nc1snnc1-c1ccccc1)C1CCCCC1,AC50,[1],inconclusive: 16.6 µM [cytotoxic]
same,outcome,[2],inactive
same,outcome,[3],inactive
same,outcome,[4],inactive
same,outcome,[5],inactive
CC(O)c1cc(C(=O)N[C@@H](C)Cn2ccc(-c3ccc(C#N)c(Cl)c3)n2)n[nH]1 (some centres not stated),AC50,[1],inconclusive: 0.263 µM [cytotoxic]
same,AC50,[2],inconclusive: 1.48 µM
same,AC50,[3],inconclusive: 23.5 µM [cytotoxic]
same,AC50,[4],inconclusive: 20.9 µM [cytotoxic]
same,IC50,[5],inconclusive: 33.2 µM [cytotoxic]
CN(C)Cc1cccc(N=C(c2ccccc2)c2c(O)[nH]c3cc(C(N)=O)ccc23)c1,AC50,[1],inconclusive: 33.2 µM [cytotoxic]
same,AC50,[2],inconclusive: 37.2 µM [cytotoxic]
same,AC50,[3],inconclusive: 18.6 µM [cytotoxic]
same,AC50,[4],inconclusive: 20.9 µM [cytotoxic]
same,IC50,[5],inconclusive: 33.2 µM [cytotoxic]
CCn1c(=O)c(-c2ccc(-c3cncc(C)n3)cc2Cl)cc2cnc(NCCC3CCN(C)CC3)nc21,outcome,[1],inactive
same,outcome,[2],inactive
same,AC50,[3],inconclusive: 0.742 µM [cytotoxic]
same,outcome,[4],inactive
same,IC50,[5],active: 1.86 µM
CN(C(=O)CNC(=O)/C=C/c1cccc(Cl)c1)C1CCS(=O)(=O)CC1,AC50,[1],active: 1.05 µM
same,AC50,[2],inconclusive: 0.132 µM [cytotoxic]
same,AC50,[3],inconclusive: 0.235 µM [cytotoxic]
same,AC50,[4],inconclusive: 0.742 µM [cytotoxic]
same,IC50,[5],inconclusive: 16.6 µM
CC(C)C[C@H](CO)Nc1nc(S[C@@H](C)c2ccccc2)nc2nc(N)sc12,outcome,[1],inactive
same,AC50,[2],inconclusive: 37.2 µM [cytotoxic]
same,AC50,[3],inconclusive: 26.3 µM [cytotoxic]
same,AC50,[4],inconclusive: 33.2 µM [cytotoxic]
same,IC50,[5],inconclusive: 33.2 µM [cytotoxic]
Cc1c[nH]c2ncnc(N3CCC(CN)(C(=O)Nc4cccc(OC(=O)N(C)C)c4)CC3)c12,AC50,[1],inconclusive: 16.6 µM [cytotoxic]
same,AC50,[2],inconclusive: 18.6 µM [cytotoxic]
same,AC50,[3],active: 16.6 µM and inconclusive: 14.8 µM [cytotoxic]
same,AC50,[4],inconclusive: 7.42 nM [cytotoxic] and inconclusive: 18.6 µM [cytotoxic]
same,IC50,[5],inconclusive: 4.68 µM [cytotoxic] and inconclusive: 16.6 µM [cytotoxic]

# Some of the entries so far, with tabs.
compound	measurement	setting	value
O=C(NO)c1cnc(NC2(c3cccc(F)c3)CCCCC2)nc1	AC50	[4]	inconclusive: 23.5 µM [cytotoxic]
same	IC50	[5]	inconclusive: 29.5 µM [cytotoxic]
C[C@@H]1CCNC(=O)c2cc3ccc(C(=O)Nc4nc5ccccc5n4CCCN(C)C)cc3n21	AC50	[1]	inconclusive: 29.5 µM [cytotoxic]
